Assay results taken from PubChem BioAssay AID504467 (National Center for Advancing Translational Sciences (NCATS), 2011).
Screen size: about 330,000 compounds; about 7,700 (2.3%) were called active. The inconclusive results got no clear call from the source; some entries with a clear call stand among them for comparison. Calls come from the whole dose curve; as a rule, active = well fitted inhibition curve with a large enough effect; inconclusive = small, poorly fitted or top-dose-only effect, or effect the other way; inactive = flat fitted curve, though single readings scatter. A potency beside an inconclusive call is a rough fit, not a confirmed value.

Assay: qHTS screen for small molecules that inhibit ELG1-dependent DNA repair in human embryonic kidney (HEK293T) cells expressing luciferase-tagged ELG1; note: nearly all actives have a fitted effect of over 55% in size
Conditions: HEK293T ELG1-luciferase reporter, luminescence, 16 h, DNA damage induced by 5-fluorouridine; activity change, negative = inhibition: at 46.1 µM (top of the series)
In short: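 Reporter activity after DNA damage by 5-fluorouridine is monitored. Compound-treated cells incubate 16 hr at 37 °C, then ONE-Glo is added for 30 min before luminescence reading.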
% is set by controls: 0 for no effect and ±100 for the full control effect; potency is the fitted concentration of half-maximal effect.

SMILES | Potency | activity change, negative = inhibition
O=C(NCc1cccnc1)c1cc(-c2cccs2)on1 | inconclusive: 18.4 µM [activator, partial curve] | 
COc1cc(/C=N/Nc2ccc(C(=O)O)cc2)ccc1O | inconclusive: 1.46 µM [activator, full curve] | 
CCCCn1c(/C=C/c2ccco2)nc2ccccc21 | inconclusive: 16.4 µM [activator, partial curve] | 
O=C(CCN1C(=O)COc2ccccc21)NCCN1CCN(c2cccc(Cl)c2)CC1 | inconclusive: 15.8 µM [inhibitor, single point] | 
Nn1c(SCC(=O)NCCC2=CCCCC2)nnc1C(F)(F)F |  | inactive: 0%
COc1cc(OC)c(-c2c3cc(O)c(=O)cc-3oc3cc(O)c(O)cc23)cc1OC | inconclusive: 25.9 µM [inhibitor, single point] | 
O=C(NC1CCCCC1)N(C1=NCCCCC1)c1ccc(Br)cc1 | inconclusive: 18.4 µM [activator, partial curve] | 
Cc1ccc(NC(=O)C(C)Oc2ccccc2)cc1S(=O)(=O)N1CCCCCC1 (centres undefined) | inconclusive: 18.3 µM [inhibitor, single point] | 
COc1ccc(OC)c(CCNC(=O)CC2Oc3ccc(C)cc3NC2=O)c1 (centres undefined) | inconclusive: 18.4 µM [inhibitor, partial curve] | 
N#Cc1cnn2c(C(F)(F)F)cc(-c3ccccc3)nc12 |  | inactive: 1.19%
O=C(/C=C/c1ccc(OCc2ccccc2)c(OCc2ccccc2)c1)c1cccnc1 |  | inactive: 23.4%
Cc1cc(NC(=O)C2CC2)ncc1NC(=O)c1ccccn1 | inconclusive: 14.6 µM [activator, partial curve] | 
CCN(CC)S(=O)(=O)c1cccc(C(=O)OCC(=O)NCCN2C(=O)CSC2=O)c1 |  | inactive: 22.2%
Cc1coc2c(C)c3oc(=O)c(CCC(=O)N4C[C@H]5C[C@@H](C4)c4cccc(=O)n4C5)c(C)c3cc12 | inconclusive: 0.259 µM [activator, partial curve, poor fit] | 
CSc1sc(C(=O)NC(=O)NCc2ccncc2)c(C)c1-c1ccon1 | inconclusive: 20.6 µM [inhibitor, single point] | 
COc1ccc(CC(=O)Nc2nc(-c3ccccc3)c(C(C)=O)s2)cc1OC | active: 18.3 µM | 
COc1ccc2oc(=N)c(C(=O)Nc3ccccc3)cc2c1 | inconclusive: 12.6 µM [activator, partial curve, poor fit] | 
S=C(NCCc1ccccc1)N/N=C/C1CCCCC1 |  | inactive: 27.7%
Cc1ccc(CSc2cc(C)[nH]c(=O)n2)cc1 | inconclusive: 16.4 µM [activator, partial curve, poor fit] | 
Cc1ccccc1C(=O)Nc1nnc(-c2ccc(C(C)(C)C)cc2)s1 | inconclusive: 23.1 µM [activator, single point] | 
COCc1nc2c([nH]1)c(=O)n(C)c(=O)n2CC(C)C | inconclusive: 10 µM [activator, partial curve] | 
COc1ccc(-c2c(C)cc3oc(=O)cc(-c4ccccc4)c3c2C)cc1F |  | inactive: 19.1%
CCOC(=O)CSC1=Nc2ccccc2C2=NC(CC(=O)NCc3ccc(OC)cc3)C(=O)N12 (centres undefined) |  | inactive: -4.82%

SMILES | Potency | activity change, negative = inhibition
O=C(NCc1ccc2c(c1)OCO2)c1ccc(N2CCCC2=O)cc1 | inconclusive: 20.6 µM [activator, single point] | 
CCCC[n+]1ccn(-c2nc3ccccc3nc2[N-]S(=O)(=O)c2ccc(Br)cc2)c1 | inconclusive: 25.9 µM [activator, single point] | 
O=C(c1cccs1)n1nc(-c2cccnc2)nc1NCc1ccco1 | inconclusive: 18.3 µM [activator, partial curve, poor fit] | 
Cn1c(NC(=O)C2CCCC2)cc(=O)n(C)c1=O | inconclusive: 23.1 µM [activator, partial curve, poor fit] | 
O=C(Nc1ccc(F)cc1)N1CCN(CCc2ccccc2)CC1 |  | inactive: -2.78%
Cc1ccc(C)c(-c2cc(C(=O)N/N=C/c3cccnc3)c3ccccc3n2)c1 |  | inactive: 8.97%
CCOC(=O)c1c(C)[nH]c(C(=O)CSc2nnnn2-c2ccccc2)c1C | inconclusive: 20.6 µM [activator, partial curve, poor fit] | 
Cc1nn2c(-c3ccc(S(=O)(=O)N4CCN(C)CC4)o3)nnc2c2ccccc12 | inconclusive: 23.1 µM [activator, single point] | 
COc1ccc2cc(C(=O)Nc3ccccc3)sc(=O)c2c1OC | inconclusive: 9.2 µM [activator, partial curve] | 
CC(C)(C)C(=O)N1CCN(c2ccc(NC(=O)c3ccc([N+](=O)[O-])o3)cc2)CC1 | inconclusive: 29.1 µM [inhibitor, single point] | 
O=C(NCCCc1ccccc1)C1CCC(=O)N(Cc2ccc(Cl)cc2)C1 (centres undefined) | inconclusive: 18.3 µM [activator, single point] | 
COc1ccc(-c2csc(NC(=S)NC(=O)c3cccs3)n2)cc1Br |  | inactive: -11.3%
CC1(c2ccc3c(c2)OCCO3)NC(=O)N(CC(=O)Nc2ccccc2F)C1=O (centres undefined) |  | inactive: 13.2%
Cn1nnnc1N=N/C(=N/Nc1ccccc1)c1ccccc1 | inconclusive: 1.3 µM [inhibitor, full curve] | 
Cc1cc(Nc2ccccc2C(=O)O)n(-c2cccc(Cl)c2)n1 |  | inactive: -7.51%
CCOC(=O)/C(N=Nc1ccc2c(c1)OCO2)=C(\C)O | inconclusive: 23.1 µM [activator, partial curve] | 
CC(C)(C)c1cc(C(=O)N2CCc3ccccc3C2)ccn1 |  | inactive: 12.9%
CCOc1ccc(NC(=O)CC2C(=O)Nc3ccccc3N2C(=O)c2ccccc2)cc1 (centres undefined) |  | inactive: -2.05%
O=C(N=C1c2ccccc2CN1c1ccc(F)cc1)c1ccc(Cl)nc1 | inconclusive: 18.4 µM [activator, single point] | 
COc1cccc(C2CC(=O)Nc3cc(OC)c(OC)cc32)c1 (centres undefined) |  | inactive: 7.14%
O=C(CCCc1c[nH]c2ccccc12)N1CCN(S(=O)(=O)c2cccs2)CC1 | inconclusive: 23.1 µM [inhibitor, single point] | 
O=C(N/N=C/c1ccc(OC(=O)c2ccccc2Cl)cc1)c1ccccn1 | inconclusive: 14.6 µM [activator, partial curve] | 
CC(C)c1ccc(NC(=O)COC(=O)C2CCCCC2)cc1 | inconclusive: 18.3 µM [activator, partial curve] | 

SMILES | Potency | activity change, negative = inhibition
Cc1ccc(NCc2nc3ccccc3n2C)cc1C | inconclusive: 5.01 µM [activator, partial curve] | 
c1ccc2c(Nc3nc4c(s3)CCCC4)cccc2c1 | inconclusive: 10 µM [activator, partial curve, poor fit] | 
COC(=O)c1cc(NC(=O)C2COc3ccccc3O2)cc(C(=O)OC)c1 (centres undefined) | inconclusive: 18.4 µM [inhibitor, single point] | 
CCCN1C=CC(=C/C=C(\C#N)C(=O)OCC)C=C1 | inconclusive: 9.2 µM [activator, partial curve] | 
O=C(Cc1ccccc1)N/N=C/c1cc(Br)c(Br)o1 | inconclusive: 23.1 µM [activator, single point] | 
Cc1cc(=O)n2[nH]c(-c3ccc(F)cc3)nc2n1 | inconclusive: 20.6 µM [activator, partial curve] | 
CC(=O)NC(=S)Nc1ccc(S(=O)(=O)N(C)Cc2ccccc2)cc1 | inconclusive: 25.9 µM [inhibitor, single point] | 
CCOC(=O)c1c(NC(=O)c2ccc(Cl)s2)sc(C)c1C |  | inactive: -3.05%
Clc1nc2ccccc2cc1-c1nnn(-c2ccccc2)n1 | inconclusive: 11.6 µM [activator, partial curve] | 
CCOC(=O)CN1C(=O)C(Sc2n[nH]c(-c3cccc(C)c3)n2)CCc2ccccc21 (centres undefined) | inconclusive: 16.4 µM [inhibitor, single point] | 
Cc1ccc(C(=O)N2CCC(Cc3ccccc3)CC2)cc1S(=O)(=O)N1CCOCC1 | inconclusive: 25.9 µM [inhibitor, partial curve, poor fit] | 
CCCCOc1ccc(NC(=O)CCSc2nccn2C)cc1 | inconclusive: 16.4 µM [activator, single point] | 
COc1ccc(C2C=C(c3ccc(Cl)cc3)Nc3nc(NC(C)=O)nn32)cc1 (centres undefined) | inconclusive: 18.4 µM [inhibitor, single point] | 
O=C(Nc1cccnc1)c1ccc(COc2cc(Cl)ccc2Cl)o1 | inconclusive: 35.5 µM [inhibitor, single point] | 
COc1cc(OC)nc(-n2ncc(Br)c(Br)c2=O)n1 | active: 4.61 µM | 
COc1ccccc1Nc1nc(-c2cccc([N+](=O)[O-])c2)cs1 | inconclusive: 20.6 µM [activator, partial curve, poor fit] | 
COc1ccc(-c2csc3ncn(-c4ccc(C)cc4)c(=O)c23)cc1OC | inconclusive: 29.1 µM [inhibitor, single point] | 
C/C(=N\Nc1ccc(S(=O)(=O)N2CCCCC2)cn1)c1ccc(O)cc1 | inconclusive: 18.3 µM [inhibitor, single point] | 
CCCC(C)c1oc(=O)cc(O)c1C (centres undefined) |  | inactive: 6.68%
CCc1ccc(/C=C/C(=O)C2C(=O)c3ccccc3C2=O)cc1 | inconclusive: 2.31 µM [activator, partial curve, poor fit] | 
S=C(NCc1ccccn1)Nc1ccc(Br)cc1Cl | inconclusive: 25.9 µM [activator, single point] | 
Cn1cccc1CC(=O)N/N=C\c1c2ccccc2cc2ccccc12 |  | inactive: -4.29%
CCc1ccccc1N(C)C(=O)CCc1nc(-c2ccc(C)cc2)no1 | inconclusive: 9.2 µM [inhibitor, partial curve, poor fit] | 

Reformatted tab-delimited: four of the compounds above.
SMILES	Potency	activity change, negative = inhibition
O=C(/C=C/c1ccc(OCc2ccccc2)c(OCc2ccccc2)c1)c1cccnc1		inactive: 23.4%
Cc1coc2c(C)c3oc(=O)c(CCC(=O)N4C[C@H]5C[C@@H](C4)c4cccc(=O)n4C5)c(C)c3cc12	inconclusive: 0.259 µM [activator, partial curve, poor fit]	
COCc1nc2c([nH]1)c(=O)n(C)c(=O)n2CC(C)C	inconclusive: 10 µM [activator, partial curve]	
O=C(NCCCc1ccccc1)C1CCC(=O)N(Cc2ccc(Cl)cc2)C1 (centres undefined)	inconclusive: 18.3 µM [activator, single point]	
